Data taken from article PMC5577270.
No constants are given. Whether binding was seen depends on the method and setting. Binding seen in cells or lysates may run through a third protein. Some results given as binding are weak or reduced against the parent protein; the word gives no strength.

Protein sequences, listed by entry. Tags and fused reporters are not part of them.
UniProt P35372: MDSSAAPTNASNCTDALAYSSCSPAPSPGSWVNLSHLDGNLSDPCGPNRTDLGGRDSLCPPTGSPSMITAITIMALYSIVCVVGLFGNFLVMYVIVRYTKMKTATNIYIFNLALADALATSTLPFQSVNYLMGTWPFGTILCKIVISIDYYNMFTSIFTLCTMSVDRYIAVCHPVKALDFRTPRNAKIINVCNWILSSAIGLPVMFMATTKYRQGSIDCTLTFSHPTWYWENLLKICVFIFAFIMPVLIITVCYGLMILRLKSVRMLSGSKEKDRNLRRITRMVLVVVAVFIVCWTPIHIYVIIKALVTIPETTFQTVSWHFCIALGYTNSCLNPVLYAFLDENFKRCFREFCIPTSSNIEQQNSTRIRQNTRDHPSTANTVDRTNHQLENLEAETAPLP
UniProt P32121: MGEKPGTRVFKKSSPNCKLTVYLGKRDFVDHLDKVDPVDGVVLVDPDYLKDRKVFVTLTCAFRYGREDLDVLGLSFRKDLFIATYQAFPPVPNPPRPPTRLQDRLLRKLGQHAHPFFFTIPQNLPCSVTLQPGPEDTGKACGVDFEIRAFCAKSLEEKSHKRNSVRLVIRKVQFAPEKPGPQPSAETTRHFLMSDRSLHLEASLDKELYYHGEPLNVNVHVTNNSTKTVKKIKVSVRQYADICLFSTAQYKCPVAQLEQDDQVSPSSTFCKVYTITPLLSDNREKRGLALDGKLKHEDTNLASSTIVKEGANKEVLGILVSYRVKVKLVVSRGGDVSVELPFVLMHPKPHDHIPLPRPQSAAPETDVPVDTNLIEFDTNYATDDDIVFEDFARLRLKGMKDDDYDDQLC

Biological target: mu opioid receptor (UniProt P35372)
Experiment: split reporter; PathHunter protein complementation assay in cells expressing recombinant MOP, with or without simultaneous expression of DOP; cells treated with DAMGO or morphine, or without agonist

Substance: β-arrestin2 (from UniProt P32121 1-409)
- binding: binds
